Data on one molecule can be found in PMC11969663.

The target of this assay is 6×His-tagged RID (N. crassa). The experiment in a line: affinity purification with mass spectrometry; 6×His-tagged RID from the native locus; sexual asci lysed in 50 mM HEPES pH 7.4, 137 mM NaCl, 10% glycerol with protease inhibitors; Ni-NTA Sefinose Resin, imidazole elution, SDS-PAGE, Coomassie, mass spectrometry.

Results are given in words; binding and its absence hold for the method and conditions named. Binding seen in cells or lysates may run through a third protein. Here binding means that the protein was enriched with, or labelled near, the bait; the list need not be complete.

B1: HDA-2 (enzyme, UniProt Q7SEL7 1-499)
chain: MDTLQSLQWRPPKPNYLPHDIDVDEPIVDVYKPPIPMDKASDRENQEYYAHMKRMAHEYNITRPKGYTVSYHFNPDMEPHHFGLTHPMKPFRLTLTKSLVTAYGMNFAMDNYNTRIATYEELNSFHTSDYLDYLHMAPPEEMPRDIDNPDKEVKFNLGGSDCPLFHGLYDYCSMSAGSSLDAARKICNKQSDIAIAWGGGLHHAKKSEASGFCYINDIVIAILQLLRCYPRVLYIDIDVHHGDGVEEAFHSTDRVLTCSFHKFAPEVFFPGTGGLDDNGPKSEHNPGAHHAINVPLNDGITDEQYGHLFQSVIGKINEKFRPSVIALQCGADSLAGDRLGRFNLQVQGHGACAKFCKTFGIPMIMFGGGGYTPRNVARAWAYETSVAIDVDEKINKIIPDHTPWRKHFVQEELFPSLEQILGEPRANRNSQKRLQEIIQHVHEQLRFVNAAPSVQQQVIPPDLGGIRDDVEDRLKEESEERDEGLRRDREEGLGISGEF
For the molecule B1, the binding entry is on record as “binds”.
